## Primary screen of a compound library

Measurements from “University of Dundee, Small-Polar-MMV Screening Library” (2021), ChEMBL document CHEMBL3988442.

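Viability assay of Plasmodium falciparum sporozoites; the read-out is not stated. The concentration is filed as 10 mM, unlikely as a test dose, so the dose is not known. Direction is inferred from retests: higher values go with lower viability. Strong results were mostly tested again. Of about 34,000 compounds tested this way, about 280 (0.84%) reached 50% or more in at least one test.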

The filed quantity is “Percent Effect” (%).
The record does not define 0% and 100%; most values in the screen are far below 50% and negative numbers occur (in some assays of this library far below -100).
The compounds are a random part of those screened.
Two or more numbers in one place are separate tests of the same structure; such repeats can differ widely.

compound | effect
CN(Cc1ccc(Cl)s1)C(=O)CN(C)C1CCc2ccccc21 (configuration not stated) | 7.23%
O=C(c1ncoc1-c1ccco1)N1CCCN(c2nccs2)CC1 | -8.788%
CNCC(=O)N1CCCCC1c1nccc(C)n1 (configuration not stated) | 4.827%
COc1ccc(CN(Cc2cnc(N)nc2)CC2CCCO2)c(OC)c1.O=C(O)CC(O)(CC(=O)O)C(=O)O (configuration not stated) | 9.552%
Cc1ccc2nc(CN3CCCCC3CCn3cccn3)cn2c1 (configuration not stated) | -0.1791%
CC1CN(CCOc2cccc(C#N)c2)CCN1Cc1nccn1C (configuration not stated) | 4.321%
Cc1ccc(C(=O)N2CCC(c3nccn3Cc3ccncc3)CC2)s1 | 9.211%
COCCO[C@H]1CCN(C(=O)c2cnoc2C)[C@H]1Cc1cnn(C)c1 | -4.774%
CCc1ncc2c(n1)CN(Cc1nc3c(F)cccc3[nH]1)CC2 | -22.91%
CCn1ccnc1CN1CCC(CCC(=O)Nc2ccccc2Cl)CC1 | -3.43%
O=C(NCCc1ccc(Cl)s1)N1CCS(=O)(=O)CC1 | 3.634%
O=C(c1ccc[nH]1)N1CCCC2(CCN(c3ccsc3)C2=O)C1 (configuration not stated) | -2.793%
CC(=O)N1CCN(Cc2ccco2)CC2(CC(=O)N(C)C2)C1.O=C(O)C(F)(F)F (configuration not stated) | 12.82%
COc1ccc(C)cc1CNCc1ccc(-n2nc(C)cc2C)nc1 | -0.1649%
O=c1[nH]cc(N2CCOCC2)c(=O)[nH]1 | 6.982%
COCC(=O)N1CCC2(CC1)CC(N1CCOCC1)c1ccc(C)cc12 (configuration not stated) | 6.572%
Cc1nccn1C1CCCN(C(=O)c2ccnc(-n3ccnc3)c2)C1 (configuration not stated) | 8.914%
CC(C)(C)C(=O)NCCc1cc2nc(-c3ccncc3)ccn2n1 | 1.9%
Cc1cc(CN(C)C(=O)c2ccc(F)c(C(F)(F)F)c2)no1 | 3.089%
[H][C@@]12CCCCN(Cc3cccc(C)c3)[C@]1([H])CN(c1ncccn1)C2 | 4.004%
COc1cc(CNCCn2ccnc2)cc2c1OCO2.Cl | -16.04%
COC1CN(C(=O)NC2CCCC2)CCC(=O)N(C)c2ccccc21 (configuration not stated) | -22.34%
Cc1cc(C[S+]([O-])CC(=O)Nc2c(C)cccc2C)no1 (configuration not stated) | -3.598%
O=C(O)C(F)(F)F.[H][C@@]12CN(CC3CC3)C[C@]1([H])[C@@H](OC)CCN2C(=O)Cc1ccsc1 | -1.839%
c1ncn(CC2CN(Cc3noc(C4CC4)n3)CCO2)n1 (configuration not stated) | -12.01%
[H][C@]12CC[C@@]3(N=C(C)N(CC(C)C)C3=O)[C@@]1([H])CN(S(C)(=O)=O)C2 | 12.12%
Cc1cc(C[S+]([O-])CC(=O)NCc2cccs2)no1 (configuration not stated) | 1.799%
Cc1cc(-c2ccccc2)nc(C2CCCN2S(C)(=O)=O)n1 (configuration not stated) | 2.685%
O=C(O)C(F)(F)F.O=C(O)C(F)(F)F.[H][C@@]12CCCO[C@]1([H])[C@@H](OCc1csc(C)n1)CN2Cc1ccccn1 | -4.827%
CN(C)c1cc(CNC(=O)c2c(F)cccc2F)ccn1 | -2.978%
O=C(c1ccc(O)nc1)N1Cc2ccccc2OC2(CCOCC2)C1 | 4.089%
COc1c(C)cnc(CNC(=O)c2cc(C)nc3onc(C)c23)c1C | -13.56%
CCN(Cc1ccc2c(c1)OCCO2)C(=O)NCc1nncn1CC | 11.83%
O=C(Nc1ccccn1)C1(n2cnnn2)CCCCC1 | 0.8174%
COc1c(CNC2CCc3cc(F)ccc32)c(C)nn1C.Cl (configuration not stated) | -11.73%
COC(=O)c1ccc(N2CCN(CCS(C)(=O)=O)C(C)C2)cc1 (configuration not stated) | 3.626%
CC(C)NCC1(O)CCCN(CCC2CCCCC2)C1=O (configuration not stated) | -16.93%
CCOc1ccnc(N2CCN(C(=O)c3cccc(C#N)c3)CC2)n1 | 3.015%
C[C@H](NS(C)(=O)=O)C(=O)NCc1cc(-c2ccco2)n(CC(F)(F)F)n1 | 3.472%
CNc1cccc(C2CCN(C(C)=O)CC2)n1 | -2.22%
CC(=O)N1CCN([C@@H]2CCC[C@@H](NC(=O)c3cccnc3)[C@H]2O)CC1 | 4.93%
Cc1ncsc1C(=O)NC1CCN(Cc2ccc(C(N)=O)cc2)CC1 | 9.816%
O=C(O)C(F)(F)F.O=C(O)C(F)(F)F.c1cncc(CN2CCc3ncnc(C4CCOC4)c3CC2)c1 (configuration not stated) | 2.884%
Cc1nccn1C1CCCN(C(=O)COCC(F)(F)F)C1 (configuration not stated) | 0.9662% and -41.92% and -24.76%
Cc1ccc(-c2nnc(SCC(=O)O)n2-c2ccc(C)cc2)cc1 | -8.189%
O=C(CCc1cscn1)NS(=O)(=O)c1ccc2c(c1)CCC2 | 5.375%
CCOCCCn1c(NC(=O)c2ccnc(C)n2)nc2ccccc21 | 2.421%
CC(=O)N(C)CC(=O)Nc1cc(C(F)(F)F)c[nH]c1=O | -17.65%
Cc1cnn(CC2CCCN2Cc2ncc(-c3ccccc3)o2)c1 (configuration not stated) | 0.64%
Cc1cc(C(=O)NCCN2CCCC(C)C2)nn1C (configuration not stated) | 5.07%
Cc1nccn1-c1cccc(C2CCCN(C3CCCCC3)C2)n1 (configuration not stated) | -18.13%
CC(C)OCc1cccc(NC(=O)N2CCCC(CCC(N)=O)C2)c1 (configuration not stated) | -3.2%
CN1CCc2c(C#N)c(NCCN3CCOCC3)n3cnnc3c2C1 | -17.71%
COc1ccc(F)cc1CN1CCCn2nc(CNS(C)(=O)=O)cc2C1 | -3.859%
Cn1cc(NC(=O)N2CCC(NS(C)(=O)=O)CC2)ccc1=O | -1.61%
O=C(O)C(F)(F)F.[H][C@]12CCN(S(=O)(=O)c3cccs3)C[C@@]1([H])OCCN(C(C)C)C2 | 16.64%
CN(Cc1n[nH]c2c1CCC2)c1nc(C2CCCC2)nc2c1CNC2 | -144.2%
Cc1cnn(CCNCc2nc(-c3ccccn3)no2)c1 | 12.2%
CCCNc1nc(CS(=O)(=O)c2ccccc2)cs1 | -17.23%
Cc1nc(CN2CCN(Cc3nccn3C)CC2)no1 | -20.59%
Cc1cc(-c2cc(N)c(=O)n(CC(=O)NC3CCCC3)n2)c(C)o1 | 12.29%
C[C@@H]1CN(C2(C(=O)N3CCCCCC3)Cc3ccccc3C2)C[C@H](C)O1 | -21.5%
c1ccc(-c2nnc(CN3CCCC3Cn3cncn3)o2)cc1 (configuration not stated) | -4.398%
CC(C)Cc1noc(CN2CCOCC2)n1 | -0.4946%
CCN(CC)C(=O)[C@@H]1C[C@@H](N)CN1c1nc(N(C)C)nc(C)c1C | -8.348%
O=C(NCCCOc1cccnc1)c1cn(CCc2ccccc2)nn1 | -6.912%
O=C(NCc1cccnc1)C1=NOC2(CCN(S(=O)(=O)C3CC3)C2)C1 (configuration not stated) | -10.5%
Cc1ccn(CCC(=O)N2CCCC(Cc3cccnc3)C2)n1 (configuration not stated) | 1.172%
COc1cccc(COCC(=O)NC2CCN(CC(N)=O)CC2)c1 | -4.107%
O=C(c1ccnnc1)N1CC[C@@H](O)[C@@H]1Cc1ccccc1 | -1.986%
CNS(=O)(=O)CCCN1CCN(C(C#N)c2ccccc2)CC1 (configuration not stated) | -7.051%
CC(=O)N1CCN(C(=O)CNc2ccc3ncsc3c2)CC1 | -28.34%
CCCNC(=O)c1cc2c(s1)CCN2C(=O)c1ccccc1 | 14.67%
COc1cccc(CN2CC(O)CN(C(=O)C(C)(C)C)CC2=O)c1OC (configuration not stated) | -44.14%
CCc1nnc(CN2CCOC(Cn3cc(C)cn3)C2)o1 (configuration not stated) | -8.736%
Cc1ccc(SCCN(C)C(=O)c2cn([C@H]3CC[C@@H](N)CC3)nn2)cc1 | -15.63% and -20.39%
Cc1cc(CN2CCN(c3ccc4nncn4n3)C(C)C2)on1 (configuration not stated) | 5.856%
Cc1cc(C)c(CNC(=O)NCc2nnc3n2CCC3)c(=O)[nH]1 | 6.104%
CN(CC1CCCO1)C1CCN(CCc2ccccn2)CC1 (configuration not stated) | -24.31%
Cc1nc(CNC(C)c2cccc(N3CCCC3=O)c2)cs1.Cl (configuration not stated) | -2.086%

For reference, 4 entries once more:

compound,effect
Cc1cc(CN2CCN(c3ccc4nncn4n3)C(C)C2)on1 (configuration not stated),5.856%
O=c1[nH]cc(N2CCOCC2)c(=O)[nH]1,6.982%
Cc1nc(CNC(C)c2cccc(N3CCCC3=O)c2)cs1.Cl (configuration not stated),-2.086%
Cc1nccn1C1CCCN(C(=O)COCC(F)(F)F)C1 (configuration not stated),0.9662% and -41.92% and -24.76%